# Measured values as given in publication doi:10.1101/2023.02.24.529973.
# The chains behind the UniProt entries cited, without tags or fusion partners. Where a name states a change or a piece, a line headed by the entry shows the natural chain unless it says otherwise. Residues count along the entry.
# UniProt P9WMK7, 3-216, stated change not applied: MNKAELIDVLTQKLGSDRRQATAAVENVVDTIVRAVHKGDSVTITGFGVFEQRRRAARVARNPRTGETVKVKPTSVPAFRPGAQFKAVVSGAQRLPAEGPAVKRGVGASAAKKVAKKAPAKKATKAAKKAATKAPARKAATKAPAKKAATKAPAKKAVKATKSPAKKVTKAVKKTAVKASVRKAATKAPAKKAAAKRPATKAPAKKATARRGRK
# Results are given in words; binding and its absence hold for the method and conditions named. Binding seen in cells or lysates may run through a third protein. Here binding means that the protein was enriched with, or labelled near, the bait; the list need not be complete.
# Molecular target: Mtb histone like protein HU (MtHU) (Mycobacterium tuberculosis H37Ra (endogenous in Mtb H37Ra lysate)) (UniProt P9WMK7)
# Assay: affinity purification with mass spectrometry
substance,measurement,value
"Rv2067c, methyltransferase of Mycobacterium tuberculosis (endogenous, Mtb H37Ra lysate) (from UniProt P9WLL9 1-407) (enzyme)",binding,binds
